# Reference: PubChem BioAssay AID504467 (National Center for Advancing Translational Sciences (NCATS), 2011)
# About 7,700 (2.3%) of roughly 330,000 compounds were called active. This list was built around the results that the source calls inconclusive (neither active nor inactive); the mix of calls is not that of the screen. Calls come from the whole dose curve; as a rule, active = well fitted inhibition curve with a large enough effect; inconclusive = small, poorly fitted or top-dose-only effect, or effect the other way; inactive = flat fitted curve, though single readings scatter. Potencies beside an inconclusive call are fits to weak or partial responses and may not hold up.
# Experiment: qHTS screen for small molecules that inhibit ELG1-dependent DNA repair in human embryonic kidney (HEK293T) cells expressing luciferase-tagged ELG1; note: nearly all actives have a fitted effect of over 55% in size
# Conditions: HEK293T ELG1-luciferase reporter, luminescence, 16 h, DNA damage induced by 5-fluorouridine; activity change, negative = inhibition: at 46.1 µM (top of the series)
# Outline: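 In this reporter screen, reduction of luminescence relative to DMSO vehicle indicated activity. Compounds and 5-fluorouridine were added together to 2,000 cells per well, incubated for 16 hr at 37 °C, then developed with ONE-Glo.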
# % is set by controls: 0 for no effect and ±100 for the full control effect; potency is the fitted concentration of half-maximal effect.
Compound,"activity change, negative = inhibition",Potency
Cc1ccc2oc(C(=O)NCc3ncc(C)[nH]3)c(C)c2c1,inactive: 2.68%,
Cc1cccc2cc(CN(Cc3ccc(F)cc3)Cc3nnnn3C3CCCC3)c(=O)[nH]c12,inactive: -3.19%,
N=C1SC(c2ccccc2)C(=O)N1c1ncc(Cc2ccccc2)s1 (stereo not given),,"inconclusive: 18.4 µM [activator, partial curve, poor fit]"
CNC(=O)c1cc(NC(=O)CCn2nc(-c3ccccc3)c3ccccc3c2=O)ccc1OC,,"inconclusive: 16.4 µM [inhibitor, partial curve]"
CCOC(=O)N1CCN(c2ncnc3c2cnn3-c2ccc(Cl)cc2)CC1,,"inconclusive: 11.6 µM [activator, partial curve, poor fit]"
O=C(NCC1CCOCC1)c1ccc2nc(Cc3cccc(Cl)c3)oc2c1,inactive: 1.39%,
COc1ccc(Nc2ncnc3c2cnn3Cc2ccc(C)cc2)cc1,,"inconclusive: 16.4 µM [inhibitor, single point]"
CCOC(=O)CN1C(=O)CN(c2ccc(C)c(C)c2)C1=O,,"inconclusive: 18.4 µM [activator, single point]"
COc1ccc2cc3cc(C(=O)N(C)C4CCCCC4)oc3nc2c1,,"inconclusive: 2.91 µM [activator, partial curve]"
COc1ccc(N(CC(=O)N2CCc3ccccc3C2)S(=O)(=O)c2ccccc2)cc1,inactive: 5.89%,
C=CCC(C(=O)OC)(C(=O)OC)c1ccccc1[N+](=O)[O-],inactive: -6.99%,
Cc1cccc(-c2cc3nc(C)cc(NCCCN(C)C)n3n2)c1,,"inconclusive: 32.6 µM [activator, partial curve, poor fit]"
COc1cc(O)c(C(CCN2CCN(c3ccccc3)CC2)c2cc(OC)c(OC)c(OC)c2)c(OC)c1 (stereo not given),inactive: -12.4%,
O=C(CSc1nnc2sc3ccccc3n12)NCc1ccco1,,"inconclusive: 0.259 µM [inhibitor, single point]"
Cc1ccc(C(=O)Cn2c(NCCO)nc3ccccc32)cc1,inactive: 6.69%,
CSCC[C@H](NC(=O)OC(C)(C)C)C(=O)N/N=C/c1cc2ccc(C)cc2nc1Cl,,"inconclusive: 32.6 µM [inhibitor, single point]"
COc1ccc(COC(=O)c2ccc(N3CCCC3=O)cc2)cc1F,,"inconclusive: 18.4 µM [inhibitor, single point]"
Cc1ccccc1/C=C1\CCCc2ccccc2C1=O,,"inconclusive: 5.8 µM [activator, partial curve]"
N=c1c2c(-c3ccccc3)c(-c3ccccc3)n(Cc3ccco3)c2ncn1CCN1CCOCC1,inactive: -10.5%,
CCNC(=S)Nc1cc(OC)c(NC(=O)c2ccco2)cc1OC,inactive: -5.26%,
O=c1[nH]c(N/N=C\c2ccc3c(c2)OCO3)nc2ccccc12,,"inconclusive: 2.59 µM [activator, partial curve]"
CCNC(=O)CSc1nc2ccccc2c(=O)n1CCCOC(C)C,,"inconclusive: 20.6 µM [activator, single point]"
COc1cccc2sc3ccc(C#Cc4ccc(N)cc4)cc3c(=O)c12,,"inconclusive: 14.6 µM [activator, partial curve]"
O=C(Nc1ccc(F)cc1)Nc1cccnc1Cl,,"inconclusive: 7.3 µM [activator, partial curve]"

# Exported with bars between the fields: part of the list above
Compound | activity change, negative = inhibition | Potency
CNC(=O)c1cc(NC(=O)CCn2nc(-c3ccccc3)c3ccccc3c2=O)ccc1OC |  | inconclusive: 16.4 µM [inhibitor, partial curve]
CCOC(=O)N1CCN(c2ncnc3c2cnn3-c2ccc(Cl)cc2)CC1 |  | inconclusive: 11.6 µM [activator, partial curve, poor fit]
O=C(NCC1CCOCC1)c1ccc2nc(Cc3cccc(Cl)c3)oc2c1 | inactive: 1.39% | 

# More compounds

Compound,"activity change, negative = inhibition",Potency
CNC(=S)N1CCN=C1Nc1nc(C)cc(C)n1,,"inconclusive: 29.1 µM [activator, single point]"
Cc1ccc(C(=O)O)cc1NS(=O)(=O)c1ccc2c(c1)oc(=O)n2C,inactive: 1.97%,
O=C(CNC(=O)c1ccc(Br)o1)NC1CCCCCC1,,"inconclusive: 29.1 µM [activator, single point]"
COc1ccc2cc3cc(C(=O)NCCCN4CCC(C)CC4)oc3nc2c1,,"inconclusive: 20.6 µM [activator, partial curve]"
O=C(NC1=NCCS1)C12CC3CC(C1)CC(C(=O)NC1=NCCS1)(C3)C2,,active: 23.1 µM
CCN(CC)CCCNC(=O)c1cc(-c2ccc(Cl)c(Cl)c2)on1,,"inconclusive: 14.6 µM [activator, partial curve, poor fit]"
c1ccc(-n2cnc3cc(NCc4ccncc4)ccc32)cc1,,"inconclusive: 0.411 µM [activator, partial curve, poor fit]"
Cc1ccc2c(c1)cc1c(=O)[nH]ncn12,,"inconclusive: 11.2 µM [activator, single point]"
CC(C)NC(=O)Nc1cccc2c1O[C@H](CN(C)C(=O)Nc1ccccc1)[C@@H](C)CN([C@H](C)CO)C2=O,,"inconclusive: 32.6 µM [inhibitor, single point]"
CC1CCCC(C)N1CCCNC(=O)c1csc2c1CCCCC2 (stereo not given),,"inconclusive: 18.3 µM [activator, single point]"
O=C(Cn1cc2c(n1)CCCC2)N1CCCc2ccccc21,,"inconclusive: 18.4 µM [activator, partial curve, poor fit]"
O=C(O)CN1C(c2ccccc2O)Nc2ccc(Br)cc2C1c1ccccc1 (stereo not given),,"inconclusive: 23.1 µM [activator, partial curve, poor fit]"
Cc1nn(-c2ccccc2)c(/N=C/c2ccccc2O)c1-c1ccccc1,,"inconclusive: 9.2 µM [activator, partial curve]"
CCOc1ccc(Nc2cc(=O)oc3ccccc23)cc1,,"inconclusive: 35.5 µM [inhibitor, single point]"
Cc1ccc(-c2nc(CS(=O)CC(=O)NC3CC3)c(C)o2)cc1 (stereo not given),inactive: 0%,
COC(=O)Cn1c(=NC(=O)c2ccc([N+](=O)[O-])s2)sc2cc(Br)ccc21,,"inconclusive: 10.3 µM [activator, partial curve]"
COc1cc(C)ccc1OCC(=O)NC1CCCCCC1,,"inconclusive: 5.17 µM [activator, partial curve]"
COc1cc2ccccc2cc1C(=O)OCC(=O)N1CCOCC1,inactive: -5.76%,
CC(=O)Nc1ccc(S(=O)(=O)NC(CC(=O)O)c2ccc(C)cc2)cc1 (stereo not given),,"inconclusive: 25.9 µM [inhibitor, single point]"
COc1ccccc1N(C(=O)CCl)c1cn(C(C)=O)c2ccccc12,,active: 11.6 µM
Cc1noc(C)c1COc1ccccc1C(=O)NCc1ccco1,,"inconclusive: 8.2 µM [activator, partial curve, poor fit]"
Nc1ccc2c(c1)C/C(=C/c1ccco1)C2=O,,"inconclusive: 8.2 µM [activator, partial curve]"
COc1ccc(-c2nnnn2-c2ccc(F)cc2F)cc1,inactive: -5%,
Clc1ccc2[nH]c3c(NCC4CCCO4)ncnc3c2c1 (stereo not given),,"inconclusive: 18.4 µM [inhibitor, single point]"

Compound,"activity change, negative = inhibition",Potency
O=C(c1cccc(S(=O)(=O)NCc2ccccc2)c1)N1CCN(c2ccccc2)CC1,,"inconclusive: 16.4 µM [inhibitor, single point]"
O=S1(=O)CCOC[C@H](CC2CCCCC2)N1Cc1ccc(F)cc1,inactive: 8.78%,
COC(=O)c1c(NC(C)=O)sc2c1CCN(Cc1ccccc1)C2,inactive: 17%,
c1ccc(-c2nnc(-c3ccccc3)nn2)cc1,,"inconclusive: 18.3 µM [activator, partial curve]"
Clc1c(-c2nnc3n2CCCCC3)sc2ccccc12,,"inconclusive: 29.1 µM [activator, partial curve, poor fit]"
CCOc1ccc2[nH]cc(C(=O)O)c(=O)c2c1,,"inconclusive: 11.6 µM [activator, partial curve, poor fit]"
CSCCC(NS(=O)(=O)c1ccc2c(c1)oc(=O)n2C)C(=O)NCc1ccc(C)cc1 (stereo not given),,"inconclusive: 20.6 µM [activator, single point]"
Cc1ccc(CN2CCN(/N=C/C(Br)=C\c3ccccc3)CC2)cc1,,"inconclusive: 4.11 µM [inhibitor, full curve]"
Cc1nnsc1-c1c(C(=O)Oc2ccccc2)c(C)nn1-c1ccccc1,inactive: 4.57%,
O=C(Nc1cccc(-c2nnco2)c1)c1cccs1,,"inconclusive: 18.3 µM [activator, partial curve, poor fit]"
CCN(CC(=O)Nc1ccc(NC(C)=O)cc1)C(=O)/C=C/c1cn(-c2ccccc2)nc1-c1ccc(F)cc1,,"inconclusive: 3.16 µM [inhibitor, single point]"
O=c1c2ccccc2ccc2ccccc12,inactive: 21.8%,
O=C(Cn1cnc2ccccc21)N1CCN(S(=O)(=O)c2ccccc2)CC1,,"inconclusive: 29.1 µM [inhibitor, single point]"
Cc1onc(-c2ccccc2)c1C(=O)OCCOc1ccccc1F,inactive: 6.3%,
CCOc1cc(N2CCOCC2)c(OCC)cc1NC(=O)C(C)Oc1ccccc1 (stereo not given),,"inconclusive: 16.4 µM [inhibitor, partial curve]"
COc1ccc(CC(=O)OCC(=O)NCCc2ccccc2)cc1OC,,"inconclusive: 18.4 µM [activator, partial curve, poor fit]"
Cc1noc(C)c1COc1ccc(C(=O)OCC(=O)Nc2ccc3c(c2)OCO3)cc1,inactive: 7.03%,
C=CCn1c(N)c(C(=O)OC(C)CC)c2nc3ccccc3nc21 (stereo not given),inactive: -25.8%,
COc1cc(C(=O)Oc2ccc(C(=S)N3CCOCC3)cc2)cc(OC)c1OC,,"inconclusive: 14.6 µM [inhibitor, partial curve, poor fit]"
O=C(N/N=C\c1ccc(Sc2ccccn2)o1)c1cccc(Br)c1,inactive: -14.4%,
Cc1ccc(C(=O)N/C(=C\c2ccccc2)C(=O)OCc2ccccc2)cc1,,"inconclusive: 16.4 µM [activator, partial curve]"
COc1ccc(/C=N\NC(=O)c2ccccc2[N+](=O)[O-])cc1COc1c(F)c(F)c(F)c(F)c1F,,"inconclusive: 32.6 µM [inhibitor, partial curve, poor fit]"
